# Record: PubChem BioAssay AID1159578 (Peter MacCallum Cancer Centre, 2015)
# Aim: 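Genome-wide hunt for genes controlling movement of lymphatic endothelial cells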 (primary screen)
# System: human lymphatic endothelial cells
# Knock-down reagent: siRNA pool against human genes, 40 nM
# Timing: 48 h after transfection
# Measured: 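Cells stained with dye and imaged after a scratch; covered wound area and nuclei counted, duplicates averaged, migration set against mock wells and turned into a robust z-score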
# Reading the numbers: migration robust z-score: higher = faster migration into the scratch; migration relative to mock: higher = more scratch area covered than mock; nuclei per well: higher = more cells in the well
# Hit rule: 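Migration changed when robust z exceeds 2 or falls below -2 and mean nuclei number is at least 3300; otherwise not called changed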
# Calls: active = migration changed; inactive = no migration change, or too few cells
# Shown is a random part of about 18,000 reagents tested. Over the whole deposit, about 1,030 (5.7%) were called active. 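Inactive calls also include pools with fewer than 3300 nuclei, whose migration was not assessed.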 Raw values vary from plate to plate and are shown uncorrected. The numbers tell different reagents against one gene apart.
target,reagent no.,migration robust z-score,migration class with cell-count check,migration relative to mock,"nuclei per well, duplicate mean",call
ARB2A,1,-2.82,migration z below -2; enough cells,0.17,4272,active
TRIP12,1,-0.05,migration z between -2 and 2; enough cells,0.79,4920,inactive
SLC25A44,1,-0.88,migration z between -2 and 2; enough cells,0.64,4284,inactive
IGFLR1,1,0.43,migration z between -2 and 2; enough cells,1,6951,inactive
FOXA1,1,1.17,migration z between -2 and 2; enough cells,1.03,5519,inactive
COPZ1,1,-0.62,migration z between -2 and 2; enough cells,0.72,5862,inactive
TINAG,1,0.78,migration z between -2 and 2; enough cells,0.96,5360,inactive
CIDEB,1,0.1,migration z between -2 and 2; enough cells,0.91,4921,inactive
CLDN2,1,-0.76,migration z between -2 and 2; enough cells,0.69,5312,inactive
TSSK6,1,-2.23,under 3300 nuclei; migration not judged,0.38,2031,inactive
AK5,1,-1.17,under 3300 nuclei; migration not judged,0.58,2968,inactive
OAZ2,1,0.29,migration z between -2 and 2; enough cells,0.86,5864,inactive
ATP6V0D2,1,-0.26,migration z between -2 and 2; enough cells,0.76,5096,inactive
FKBPL,1,1.5,migration z between -2 and 2; enough cells,1.27,6064,inactive
CFAP61,1,0.92,migration z between -2 and 2; enough cells,1.12,6173,inactive
ZFP3,1,1.65,migration z between -2 and 2; enough cells,1.31,6380,inactive
ZNF335,1,1.71,migration z between -2 and 2; enough cells,1.33,6665,inactive
FPGS,1,0.96,migration z between -2 and 2; enough cells,0.99,4477,inactive
APC,1,-0.31,migration z between -2 and 2; enough cells,0.74,5450,inactive
GHITM,1,1.12,migration z between -2 and 2; enough cells,1.18,6288,inactive
BMPR1B,1,-0.57,migration z between -2 and 2; enough cells,0.7,5174,inactive
SFSWAP,1,-2.02,migration z below -2; enough cells,0.36,3699,active
HNRNPDL,1,0.45,migration z between -2 and 2; enough cells,1,5671,inactive
SLC25A45,1,-0.13,migration z between -2 and 2; enough cells,0.78,6872,inactive
SFPQ,1,0.37,migration z between -2 and 2; enough cells,0.98,5746,inactive
TAF15,1,0.24,migration z between -2 and 2; enough cells,0.85,5448,inactive
CCDC124,1,1.3,migration z between -2 and 2; enough cells,1.22,5936,inactive

Active calls, of those listed so far:
target,reagent no.,migration robust z-score,migration class with cell-count check,migration relative to mock,"nuclei per well, duplicate mean",call
ARB2A,1,-2.82,migration z below -2; enough cells,0.17,4272,active
SFSWAP,1,-2.02,migration z below -2; enough cells,0.36,3699,active

More records follow:
target,reagent no.,migration robust z-score,migration class with cell-count check,migration relative to mock,"nuclei per well, duplicate mean",call
CABP7,1,-0.29,migration z between -2 and 2; enough cells,0.81,5632,inactive
REM1,1,-0.08,migration z between -2 and 2; enough cells,0.79,5413,inactive
CDKL3,1,-1.2,migration z between -2 and 2; enough cells,0.57,5718,inactive
MOGAT1,1,1.17,migration z between -2 and 2; enough cells,1.03,5936,inactive
SF3B3,1,-1.32,migration z between -2 and 2; enough cells,0.55,4534,inactive
DENND10,1,0.43,migration z between -2 and 2; enough cells,1,5870,inactive
DAP3,1,-0.96,migration z between -2 and 2; enough cells,0.62,4911,inactive
PDSS2,1,-0.17,migration z between -2 and 2; enough cells,0.84,5686,inactive
SPC24,1,0.84,migration z between -2 and 2; enough cells,1.1,5832,inactive
RPL3L,1,-0.52,migration z between -2 and 2; enough cells,0.75,5129,inactive
TMEM223,1,0.88,migration z between -2 and 2; enough cells,1.12,5966,inactive
PODXL2,1,-0.49,migration z between -2 and 2; enough cells,0.76,6600,inactive
IP6K3,1,-2.34,migration z below -2; enough cells,0.36,4488,active
IER3,1,0.15,migration z between -2 and 2; enough cells,0.92,5424,inactive
TRIM64C,1,0.26,migration z between -2 and 2; enough cells,0.86,5141,inactive
TRIM64C,2,-0.26,migration z between -2 and 2; enough cells,0.76,4826,inactive
ZNF260,1,-0.4,migration z between -2 and 2; enough cells,0.78,4966,inactive
EZHIP,1,1.26,migration z between -2 and 2; enough cells,1.21,5434,inactive
ELAVL3,1,-1.66,migration z between -2 and 2; enough cells,0.46,4548,inactive
NAV3,1,0.32,migration z between -2 and 2; enough cells,0.97,6566,inactive
MRPL49,1,0.04,migration z between -2 and 2; enough cells,0.89,5774,inactive
MYOZ3,1,-0.43,migration z between -2 and 2; enough cells,0.77,5904,inactive
OR51A2,1,-1.5,migration z between -2 and 2; enough cells,0.5,4476,inactive
SRSF4,1,0,migration z between -2 and 2; enough cells,0.88,5857,inactive
ATRX,1,0.54,migration z between -2 and 2; enough cells,0.91,5350,inactive
ARHGAP11B,1,-1.32,migration z between -2 and 2; enough cells,0.55,5013,inactive
PCLAF,1,-0.39,migration z between -2 and 2; enough cells,0.78,5146,inactive
DAZ3,1,-0.24,migration z between -2 and 2; enough cells,0.82,5966,inactive
SLC6A8,1,-0.62,migration z between -2 and 2; enough cells,0.68,5322,inactive
TNNT3,1,-0.77,migration z between -2 and 2; enough cells,0.68,5822,inactive
